Consider two molecules from PMC10313651.

Amino acid sequences for entries named in this document (tags omitted).
UniProt O95373: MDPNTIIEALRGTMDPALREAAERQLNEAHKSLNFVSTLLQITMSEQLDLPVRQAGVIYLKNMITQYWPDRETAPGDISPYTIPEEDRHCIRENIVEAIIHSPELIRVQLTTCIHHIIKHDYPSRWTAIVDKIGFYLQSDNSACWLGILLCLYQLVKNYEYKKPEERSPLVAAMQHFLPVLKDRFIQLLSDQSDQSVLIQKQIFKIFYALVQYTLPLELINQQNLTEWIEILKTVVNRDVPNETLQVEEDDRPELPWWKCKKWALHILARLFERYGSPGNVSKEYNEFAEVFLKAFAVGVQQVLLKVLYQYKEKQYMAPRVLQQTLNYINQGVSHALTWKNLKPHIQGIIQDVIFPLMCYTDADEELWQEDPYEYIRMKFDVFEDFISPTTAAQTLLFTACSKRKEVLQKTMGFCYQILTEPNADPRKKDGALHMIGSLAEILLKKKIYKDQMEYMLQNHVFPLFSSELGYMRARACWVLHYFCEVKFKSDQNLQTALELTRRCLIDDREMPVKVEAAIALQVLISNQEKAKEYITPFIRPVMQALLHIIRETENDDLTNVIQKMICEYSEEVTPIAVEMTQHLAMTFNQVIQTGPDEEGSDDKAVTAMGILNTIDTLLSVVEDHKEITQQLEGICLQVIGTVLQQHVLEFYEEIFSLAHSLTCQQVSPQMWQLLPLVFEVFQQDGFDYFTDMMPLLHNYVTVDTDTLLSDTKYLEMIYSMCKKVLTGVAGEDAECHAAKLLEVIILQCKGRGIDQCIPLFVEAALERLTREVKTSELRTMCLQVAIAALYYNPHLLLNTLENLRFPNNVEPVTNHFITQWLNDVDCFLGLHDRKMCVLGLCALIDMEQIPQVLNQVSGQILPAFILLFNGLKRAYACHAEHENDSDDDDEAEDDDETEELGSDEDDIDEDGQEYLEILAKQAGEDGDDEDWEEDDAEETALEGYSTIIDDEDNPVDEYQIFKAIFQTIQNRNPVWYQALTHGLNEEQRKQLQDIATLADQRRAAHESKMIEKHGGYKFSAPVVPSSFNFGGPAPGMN
UniProt P10275: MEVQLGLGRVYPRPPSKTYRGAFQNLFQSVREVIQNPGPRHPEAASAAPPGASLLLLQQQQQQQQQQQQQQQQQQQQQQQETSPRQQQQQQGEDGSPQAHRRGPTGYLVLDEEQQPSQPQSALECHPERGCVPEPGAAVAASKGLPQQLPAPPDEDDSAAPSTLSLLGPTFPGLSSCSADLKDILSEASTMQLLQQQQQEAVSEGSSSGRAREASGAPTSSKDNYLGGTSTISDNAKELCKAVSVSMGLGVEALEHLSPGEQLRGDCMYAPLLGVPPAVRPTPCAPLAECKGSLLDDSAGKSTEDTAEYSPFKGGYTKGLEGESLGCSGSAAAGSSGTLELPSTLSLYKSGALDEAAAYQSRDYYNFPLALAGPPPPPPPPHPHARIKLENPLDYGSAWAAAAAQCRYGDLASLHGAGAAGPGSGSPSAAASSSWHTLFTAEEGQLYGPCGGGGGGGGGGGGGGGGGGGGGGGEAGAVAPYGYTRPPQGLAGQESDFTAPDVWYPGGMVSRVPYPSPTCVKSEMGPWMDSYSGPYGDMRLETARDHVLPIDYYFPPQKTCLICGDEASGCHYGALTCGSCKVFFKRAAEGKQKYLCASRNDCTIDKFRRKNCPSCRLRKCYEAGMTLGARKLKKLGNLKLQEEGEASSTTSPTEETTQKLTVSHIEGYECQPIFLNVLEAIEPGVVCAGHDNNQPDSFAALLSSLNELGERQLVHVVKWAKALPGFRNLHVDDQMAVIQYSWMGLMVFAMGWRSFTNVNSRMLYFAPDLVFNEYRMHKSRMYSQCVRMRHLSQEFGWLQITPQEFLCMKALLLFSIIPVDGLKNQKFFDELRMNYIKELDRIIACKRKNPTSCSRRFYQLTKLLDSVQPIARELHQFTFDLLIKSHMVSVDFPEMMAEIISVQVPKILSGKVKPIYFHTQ

Test [1] concerns the target Importin-7 (human (endogenous in MDA-MB-231, MCF-7, MDA-MB-453)) (UniProt O95373). Kind of test: co-IP; endogenous proteins in lysates of MDA-MB-231 and MCF-7 cells; precipitated with Importin-7 antibody (Fig. 4A) or AR antibody (Fig. 4B), immunoblot. (A western blot detects proteins with antibodies after separation by electrophoresis.)
Test [2] has the same target. Kind of test: co-IP; endogenous proteins in lysates of MDA-MB-453 cells; cells androgen-starved (CDS-FBS, 2 d) then enzalutamide (20 uM), DHT (10 nM) or R1881 (10 nM) for 24 h (Fig. 4F), or transfected with Importin-7, USP22 or control siRNAs for 48 h (Fig. 4G, H); immunoblot.
In test [3] the target is androgen receptor (human (endogenous in MDA-MB-231, MCF-7, MDA-MB-453)) (UniProt P10275). The test is described as above.

No constants are given. Whether binding was seen depends on the method and setting. Binding seen in cells or lysates may run through a third protein. Some entries that bind do so weakly or less than the wild type.

For the molecule “androgen receptor (from UniProt P10275 1-920)”, the binding result in test [1] and in test [2] was “binds” in each case.

B1: USP22 (enzyme, UniProt Q9UPT9 1-525)
chain: MVSRPEPEGEAMDAELAVAPPGCSHLGSFKVDNWKQNLRAIYQCFVWSGTAEARKRKAKSCICHVCGVHLNRLHSCLYCVFFGCFTKKHIHEHAKAKRHNLAIDLMYGGIYCFLCQDYIYDKDMEIIAKEEQRKAWKMQGVGEKFSTWEPTKRELELLKHNPKRRKITSNCTIGLRGLINLGNTCFMNCIVQALTHTPLLRDFFLSDRHRCEMQSPSSCLVCEMSSLFQEFYSGHRSPHIPYKLLHLVWTHARHLAGYEQQDAHEFLIAALDVLHRHCKGDDNGKKANNPNHCNCIIDQIFTGGLQSDVTCQVCHGVSTTIDPFWDISLDLPGSSTPFWPLSPGSEGNVVNGESHVSGTTTLTDCLRRFTRPEHLGSSAKIKCSGCHSYQESTKQLTMKKLPIVACFHLKRFEHSAKLRRKITTYVSFPLELDMTPFMASSKESRMNGQYQQPTDSLNNDNKYSLFAVVNHQGTLESGHYTSFIRQHKDQWFKCDDAIITKASIKDVLDSEGYLLFYHKQFLEYE
As to B1, the binding entry in test [1] and in test [3] was “binds” each time.
